{"source": "PubChem BioAssay AID1224828 (NIAID, 2016)", "screen": "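Knock-downs that increase or decrease LPS-induced p65 nuclear translocation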 (primary screen)", "system": "mouse RAW264.7 G9 macrophage reporter cells (GFP-p65, Tnf promoter-mCherry)", "reagent": "siRNA pool against mouse genes, 100 nM", "duration": "2 days siRNA transfection, then 40 min LPS before fixation", "treatment": "LPS (Salmonella minnesota R595) at 10 ng/ml", "measured": "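Microscopy ratio of nuclear to perinuclear-ring GFP-p65 signal, scaled to the plate median; gene score is the average of two replicate robust z-scores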", "reading the numbers": "p65 translocation robust z-score: higher = more nuclear NF-kappaB p65 after LPS than the plate median; nuclear/cytoplasmic p65 ratio: higher = more nuclear NF-kappaB p65", "hit rule": "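Active if robust z is above 3.3 (negative regulators) or below -1.56, the Tlr4 control median (positive regulators); activity score 50 or more; control wells not called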", "meaning of the calls": "active = hit (p65 shift raised or lowered); inactive = no clear change", "note": "The whole screen tested about 17,000 reagents; this is an unselected part. Over the whole deposit, 762 (4.5%) are marked active. 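Active calls include both raised and lowered p65 entry, mostly lowered; wells with fewer than 50 cells lack a z-score.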 Raw values are not corrected between plates. Reagent sequences are not shown."}
{"gene":"Ogfod3","p65 translocation robust z-score":-0.92,"nuclear/cytoplasmic p65 ratio, rep 1":1.41,"nuclear/cytoplasmic p65 ratio, rep 2":1.32,"low cell count flag":"enough cells to score","activity call":"inactive"}
{"gene":"Mospd1","p65 translocation robust z-score":-1.83,"nuclear/cytoplasmic p65 ratio, rep 1":1.55,"nuclear/cytoplasmic p65 ratio, rep 2":1.27,"low cell count flag":"enough cells to score","activity call":"active"}
{"gene":"Wwtr1","nuclear/cytoplasmic p65 ratio, rep 1":1.25,"nuclear/cytoplasmic p65 ratio, rep 2":1.29,"low cell count flag":"fewer than 50 cells per well; well left out of scoring","activity call":"inactive"}
{"gene":"A630012P03Rik","p65 translocation robust z-score":2.11,"nuclear/cytoplasmic p65 ratio, rep 1":1.59,"nuclear/cytoplasmic p65 ratio, rep 2":1.89,"low cell count flag":"enough cells to score","activity call":"inactive"}
{"gene":"Rpl37","p65 translocation robust z-score":-0.86,"nuclear/cytoplasmic p65 ratio, rep 1":1.37,"nuclear/cytoplasmic p65 ratio, rep 2":1.42,"low cell count flag":"enough cells to score","activity call":"inactive"}
{"gene":"Bcar1","p65 translocation robust z-score":0.21,"nuclear/cytoplasmic p65 ratio, rep 1":1.58,"nuclear/cytoplasmic p65 ratio, rep 2":1.71,"low cell count flag":"enough cells to score","activity call":"inactive"}
{"gene":"Sox8","p65 translocation robust z-score":-0.46,"nuclear/cytoplasmic p65 ratio, rep 1":1.4,"nuclear/cytoplasmic p65 ratio, rep 2":1.57,"low cell count flag":"enough cells to score","activity call":"inactive"}
{"gene":"Cpeb4","p65 translocation robust z-score":-0.38,"nuclear/cytoplasmic p65 ratio, rep 1":1.5,"nuclear/cytoplasmic p65 ratio, rep 2":1.74,"low cell count flag":"enough cells to score","activity call":"inactive"}
{"gene":"Rif1","p65 translocation robust z-score":0.07,"nuclear/cytoplasmic p65 ratio, rep 1":1.59,"nuclear/cytoplasmic p65 ratio, rep 2":1.55,"low cell count flag":"enough cells to score","activity call":"inactive"}
{"gene":"Dgat2","p65 translocation robust z-score":0.5,"nuclear/cytoplasmic p65 ratio, rep 1":1.59,"nuclear/cytoplasmic p65 ratio, rep 2":1.67,"low cell count flag":"enough cells to score","activity call":"inactive"}
{"gene":"Cttnbp2nl","p65 translocation robust z-score":0.81,"nuclear/cytoplasmic p65 ratio, rep 1":1.73,"nuclear/cytoplasmic p65 ratio, rep 2":1.95,"low cell count flag":"enough cells to score","activity call":"inactive"}

Continued; the last 2 above are carried over.
{"gene":"Dgat2","p65 translocation robust z-score":0.5,"nuclear/cytoplasmic p65 ratio, rep 1":1.59,"nuclear/cytoplasmic p65 ratio, rep 2":1.67,"low cell count flag":"enough cells to score","activity call":"inactive"}
{"gene":"Cttnbp2nl","p65 translocation robust z-score":0.81,"nuclear/cytoplasmic p65 ratio, rep 1":1.73,"nuclear/cytoplasmic p65 ratio, rep 2":1.95,"low cell count flag":"enough cells to score","activity call":"inactive"}
{"gene":"Dmrtc2","p65 translocation robust z-score":-2.02,"nuclear/cytoplasmic p65 ratio, rep 1":1.18,"nuclear/cytoplasmic p65 ratio, rep 2":1.21,"low cell count flag":"enough cells to score","activity call":"active"}
{"gene":"Gm839","p65 translocation robust z-score":0.23,"nuclear/cytoplasmic p65 ratio, rep 1":1.66,"nuclear/cytoplasmic p65 ratio, rep 2":1.59,"low cell count flag":"enough cells to score","activity call":"inactive"}
{"gene":"Dhx57","p65 translocation robust z-score":0.12,"nuclear/cytoplasmic p65 ratio, rep 1":1.5,"nuclear/cytoplasmic p65 ratio, rep 2":1.64,"low cell count flag":"enough cells to score","activity call":"inactive"}
{"gene":"Lrg1","p65 translocation robust z-score":-1.67,"nuclear/cytoplasmic p65 ratio, rep 1":1.54,"nuclear/cytoplasmic p65 ratio, rep 2":1.22,"low cell count flag":"enough cells to score","activity call":"active"}
{"gene":"Iah1","nuclear/cytoplasmic p65 ratio, rep 1":1.25,"nuclear/cytoplasmic p65 ratio, rep 2":1.19,"low cell count flag":"fewer than 50 cells per well; well left out of scoring","activity call":"inactive"}
{"gene":"Rnf17","p65 translocation robust z-score":-0.23,"nuclear/cytoplasmic p65 ratio, rep 1":1.35,"nuclear/cytoplasmic p65 ratio, rep 2":1.23,"low cell count flag":"enough cells to score","activity call":"inactive"}
{"gene":"Sprr4","p65 translocation robust z-score":-0.13,"nuclear/cytoplasmic p65 ratio, rep 1":1.32,"nuclear/cytoplasmic p65 ratio, rep 2":1.22,"low cell count flag":"enough cells to score","activity call":"inactive"}
{"gene":"Rpl8","p65 translocation robust z-score":0.05,"nuclear/cytoplasmic p65 ratio, rep 1":1.41,"nuclear/cytoplasmic p65 ratio, rep 2":1.22,"low cell count flag":"enough cells to score","activity call":"inactive"}
{"gene":"Sstr4","p65 translocation robust z-score":0.22,"nuclear/cytoplasmic p65 ratio, rep 1":1.54,"nuclear/cytoplasmic p65 ratio, rep 2":1.31,"low cell count flag":"enough cells to score","activity call":"inactive"}
{"gene":"Galntl5","nuclear/cytoplasmic p65 ratio, rep 1":1.37,"nuclear/cytoplasmic p65 ratio, rep 2":0,"low cell count flag":"fewer than 50 cells per well; well left out of scoring","activity call":"inactive"}
{"gene":"Fli1","p65 translocation robust z-score":-0.55,"nuclear/cytoplasmic p65 ratio, rep 1":1.32,"nuclear/cytoplasmic p65 ratio, rep 2":1.34,"low cell count flag":"enough cells to score","activity call":"inactive"}
{"gene":"Dcaf12","p65 translocation robust z-score":3.59,"nuclear/cytoplasmic p65 ratio, rep 1":1.85,"nuclear/cytoplasmic p65 ratio, rep 2":1.7,"low cell count flag":"enough cells to score","activity call":"active"}
{"gene":"Hcfc1","p65 translocation robust z-score":0.18,"nuclear/cytoplasmic p65 ratio, rep 1":1.49,"nuclear/cytoplasmic p65 ratio, rep 2":1.37,"low cell count flag":"enough cells to score","activity call":"inactive"}
{"gene":"Idh3a","p65 translocation robust z-score":1.27,"nuclear/cytoplasmic p65 ratio, rep 1":1.79,"nuclear/cytoplasmic p65 ratio, rep 2":1.55,"low cell count flag":"enough cells to score","activity call":"inactive"}
{"gene":"Maob","p65 translocation robust z-score":0.74,"nuclear/cytoplasmic p65 ratio, rep 1":1.6,"nuclear/cytoplasmic p65 ratio, rep 2":1.38,"low cell count flag":"enough cells to score","activity call":"inactive"}
{"gene":"Pnp","p65 translocation robust z-score":0.23,"nuclear/cytoplasmic p65 ratio, rep 1":1.56,"nuclear/cytoplasmic p65 ratio, rep 2":1.41,"low cell count flag":"enough cells to score","activity call":"inactive"}
